Positions of bridges follow the written chain, without caps; N, C: chain ends.
Key:
[1] = general procedure: Fmoc solid-phase peptide synthesis; Rink amide-MBHA; HATU/DIPEA; manual: HATU/NMM, HBTU/NMM, DIC/Oxyma or DIC/Oxyma/DIPEA; conditions: whole synthesis, scale 0.5 mmol
[2] = general procedure: Fmoc solid-phase peptide synthesis; TentaGel S RAM; Rink amide-MBHA; HATU/DIPEA; manual: HATU/NMM, HBTU/NMM, DIC/Oxyma or DIC/Oxyma/DIPEA; conditions: analytical HPLC and MS

| Substance | crude mass [1] [g] | crude purity (method not given) ([2]; whole synthesis) | final HPLC purity ([2]; whole synthesis) [%] | final HPLC purity ([2]; oxidative folding step) [%] |
| --- | --- | --- | --- | --- |
| Ac-SEFA(1)I[1-Me-Trp]QDWGEHRhC(1)[Sar]EGE[Peg3][Peg3]-K([17-carboxy-heptadecanoyl][γGlu]G[γGlu])-NH2 | 1.4 | 23% | 90.3 |  |
| Ac-ICIWQDWGAHRCT-NH2 (disulfide 2-12; SMILES CC[C@H](C)[C@H](NC(C)=O)C(=O)N[C@H]1CSSC[C@@H](C(=O)N[C@H](C(N)=O)[C@@H](C)O)NC(=O)[C@H](CCCNC(=N)N)NC(=O)[C@H](Cc2c[nH]cn2)NC(=O)[C@H](C)NC(=O)CNC(=O)[C@H](Cc2c[nH]c3ccccc23)NC(=O)[C@H](CC(=O)O)NC(=O)[C@H](CCC(N)=O)NC(=O)[C@H](Cc2c[nH]c3ccccc23)NC(=O)[C@H]([C@@H](C)CC)NC1=O) |  | ˜30% |  | 92 |
| Ac-SEFC(1)1[1-Me-Trp]QDWGEHRC(1)[Sar]EGA-K([17-carboxy-heptadecanoyl][γGlu]G[Peg3][γGlu][Peg3])-NH2 |  | ˜41-48% |  | 91 |
